# Patent publication US6946544
# Amino acid sequences for entries named in this document (tags omitted). A change or cut given only in a name is not applied to a line headed by its entry.
# UniProt Q13489: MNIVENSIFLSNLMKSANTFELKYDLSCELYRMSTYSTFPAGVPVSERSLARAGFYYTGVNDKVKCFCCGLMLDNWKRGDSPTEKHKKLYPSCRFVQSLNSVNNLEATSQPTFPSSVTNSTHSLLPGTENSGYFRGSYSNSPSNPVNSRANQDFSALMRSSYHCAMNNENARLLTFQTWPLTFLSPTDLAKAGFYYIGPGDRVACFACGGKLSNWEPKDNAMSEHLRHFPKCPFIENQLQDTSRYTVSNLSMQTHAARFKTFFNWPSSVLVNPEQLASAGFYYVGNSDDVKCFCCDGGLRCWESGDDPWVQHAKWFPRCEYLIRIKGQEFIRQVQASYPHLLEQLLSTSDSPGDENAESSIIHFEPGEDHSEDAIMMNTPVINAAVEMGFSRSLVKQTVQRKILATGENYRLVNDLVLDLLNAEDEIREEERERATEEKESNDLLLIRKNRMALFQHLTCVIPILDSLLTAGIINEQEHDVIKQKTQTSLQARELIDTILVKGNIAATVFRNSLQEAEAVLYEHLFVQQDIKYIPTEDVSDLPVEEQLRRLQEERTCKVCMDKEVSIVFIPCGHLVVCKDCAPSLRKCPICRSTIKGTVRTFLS
# UniProt P04386: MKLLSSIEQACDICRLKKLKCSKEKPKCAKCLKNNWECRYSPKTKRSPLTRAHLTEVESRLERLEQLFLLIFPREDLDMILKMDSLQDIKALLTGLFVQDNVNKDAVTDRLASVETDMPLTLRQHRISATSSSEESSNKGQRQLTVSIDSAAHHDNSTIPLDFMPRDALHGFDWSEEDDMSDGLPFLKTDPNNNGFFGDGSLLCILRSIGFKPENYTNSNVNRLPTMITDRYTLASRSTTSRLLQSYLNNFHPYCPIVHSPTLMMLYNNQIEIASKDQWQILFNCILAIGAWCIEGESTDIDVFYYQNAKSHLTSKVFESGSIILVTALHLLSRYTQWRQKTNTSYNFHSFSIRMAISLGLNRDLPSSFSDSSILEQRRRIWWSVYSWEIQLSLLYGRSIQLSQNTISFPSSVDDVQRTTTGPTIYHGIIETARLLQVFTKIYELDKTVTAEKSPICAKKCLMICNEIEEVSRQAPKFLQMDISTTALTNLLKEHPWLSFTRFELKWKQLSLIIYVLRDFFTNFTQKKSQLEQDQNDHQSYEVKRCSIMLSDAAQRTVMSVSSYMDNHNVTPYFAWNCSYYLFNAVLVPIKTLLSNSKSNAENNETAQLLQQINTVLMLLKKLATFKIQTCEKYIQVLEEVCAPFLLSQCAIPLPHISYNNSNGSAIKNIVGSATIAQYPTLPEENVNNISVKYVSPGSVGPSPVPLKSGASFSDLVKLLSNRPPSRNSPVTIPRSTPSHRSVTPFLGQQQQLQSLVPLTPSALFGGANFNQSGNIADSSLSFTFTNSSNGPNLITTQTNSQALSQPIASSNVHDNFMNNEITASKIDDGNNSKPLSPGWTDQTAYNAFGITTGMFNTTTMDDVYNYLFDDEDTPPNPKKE
# These are yes or no findings as the source states them, for the method shown. For some assays here: In cells and extracts the contact can be indirect. Some binding calls cover weakened binding; strength is not graded here. For some assays here: Where a sequence is shown, tags or fusion partners need not be part of it.
# Assays:
# [1] = target: T1, GST-XAF-1 fusion protein (Schistosoma japonicum; human) (UniProt Q6GPH4); experiment: pull-down of 35S-labeled in vitro translated protein on GST-XAF-1 beads, cell-free, SDS-PAGE and autoradiography
# T1 sequence: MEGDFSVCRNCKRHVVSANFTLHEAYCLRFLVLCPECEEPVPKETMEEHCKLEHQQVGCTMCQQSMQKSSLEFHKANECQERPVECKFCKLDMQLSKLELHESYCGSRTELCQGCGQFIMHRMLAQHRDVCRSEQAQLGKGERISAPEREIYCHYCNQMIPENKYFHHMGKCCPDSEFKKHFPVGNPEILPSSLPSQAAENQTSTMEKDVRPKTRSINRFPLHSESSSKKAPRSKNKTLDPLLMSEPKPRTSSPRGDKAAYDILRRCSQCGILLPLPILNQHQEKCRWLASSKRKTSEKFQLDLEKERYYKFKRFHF
# [2] = target: T2, XAF-1 (XIAP associated factor 1), clone from the human placenta cDNA library in the yeast two-hybrid screen (human) (UniProt Q6GPH4); experiment: yeast two-hybrid screen, XIAP as bait
# T2 sequence: T1 sequence
binding [1],binding [2],Substance
binds,–,35S-labeled in vitro translated HIAP-1 (from UniProt Q13489 1-604)
–,binds,GAL4 DNA-binding domain fused to full-length XIAP (pAS2-XIAP bait) (from UniProt P04386 1-147; P98170 1-497)
